From the supplement of paper PMC12823440, “Inhibitors supercharge kinase turnover through native proteolytic circuits” (Nature, 2025)
Structures can show the parent of a compound that is named as a salt. The list shows a part of the results. Hit calls seldom repeat between salt and free forms of one compound.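 In K562 cells expressing nanoluciferase-fused kinases, luminescence was recorded at 4 h intervals between 2 and 18 h, normalized as percent of control with DMSO at 100% and a positive control at 0%. A significant (2 sigma) signal drop marks a time point as decreased. The authors' rule for a hit is not shown and takes in more than the number of time points.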

By UniProt entry, the sequences of proteins in these tests, tags left out. Where a name states a change or a piece, a line headed by the entry shows the natural chain unless it says otherwise.
UniProt Q9BRS2: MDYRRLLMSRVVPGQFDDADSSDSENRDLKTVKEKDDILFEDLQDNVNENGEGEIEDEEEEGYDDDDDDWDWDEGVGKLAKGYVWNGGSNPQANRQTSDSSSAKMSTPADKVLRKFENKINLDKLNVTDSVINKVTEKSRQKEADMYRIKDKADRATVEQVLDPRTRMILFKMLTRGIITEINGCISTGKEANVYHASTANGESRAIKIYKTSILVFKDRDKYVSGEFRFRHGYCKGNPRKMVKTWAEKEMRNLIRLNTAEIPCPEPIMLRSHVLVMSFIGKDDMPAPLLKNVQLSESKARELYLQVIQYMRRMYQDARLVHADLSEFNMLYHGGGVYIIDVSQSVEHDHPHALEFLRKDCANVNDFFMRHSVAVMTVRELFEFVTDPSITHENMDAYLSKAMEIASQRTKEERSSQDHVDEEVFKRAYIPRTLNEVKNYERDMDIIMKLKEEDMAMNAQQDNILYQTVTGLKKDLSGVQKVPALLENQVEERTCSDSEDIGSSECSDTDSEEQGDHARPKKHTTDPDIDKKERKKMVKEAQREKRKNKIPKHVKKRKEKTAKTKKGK

Molecular target: RIOK1 (UniProt Q9BRS2)
Assay: kinase-Nluc reporter destabilization hit call (1 = scored as downregulated) (binary); higher = compound decreases kinase abundance
Details: K562; 2-18 h

kinase-Nluc reporter destabilization hit call, inactive:
Cc1cc(C)nc(NS(=O)(=O)c2ccc(NC(=S)NC(=O)COc3ccc(Br)cc3Cl)cc2)n1 (2.5 µM) 0
Oc1ccc(/C=C/c2cc(O)cc(O)c2)cc1 [Resveratrol] (10 µM) 0
COc1ccc(S(=O)(=O)NCc2ccc(C(=O)NCCc3ccc(Cl)cn3)cc2)cc1 (10 µM) 0
O=c1[nH]c(C2CCCN2)nc2c1oc1ccc(Cl)cc12 (stereo not drawn) [XL413 (hydrochloride)] (10 µM) 0
O=C(NC1CCOCC1)c1ccc(-c2cc(-c3c[nH]nc3-c3ccccn3)ccn2)cc1 (10 µM) 0
N#Cc1c2nc3ccccc3nc2n2ccc(NC(=O)c3cccs3)cc12 (10 µM) 0
COCCNc1cc(NC(=O)N2CCCc3cc(CN4CCN(C)CC4=O)c(C=O)nc32)ncc1C#N [Roblitinib] (10 µM) 0
CN(C)CCC=C1c2ccccc2CCc2ccccc21 [Amitriptyline (hydrochloride)] (2.5 µM) 0
Cn1cc(C2=C(c3cn(CCCSC(=N)N)c4ccccc34)C(=O)NC2=O)c2ccccc21 [Ro 31-8220 (mesylate)] (2.5 µM) 0
CC(C)(C)n1nc(Cc2ccccc2O)c2c(N)ncnc21 (10 µM) 0
COc1cc2ncnc(Nc3ccc(F)c(Cl)c3)c2cc1NC(=O)/C=C/CN1CCCCC1 [Dacomitinib] (10 µM) 0
C[C@@H]1COCCN1c1nc(-c2cnc(N)cc2C(F)F)nc(N2[C@H](C)COC[C@@H]2C)n1 (2.5 µM) 0
COc1cc2ncnc(Nc3ccccc3)c2cc1OC (10 µM) 0
O=C(Nc1nc2ccccc2[nH]1)c1cccc([N+](=O)[O-])c1 [IRAK-4 protein kinase inhibitor 2] (10 µM) 0
Cc1ccc(Oc2nc3cc(-c4ccc(-c5ccccc5)cc4)c(Cl)cc3[nH]2)cc1C(=O)O (10 µM) 0
c1ccc(-c2nc3c(c(-n4ccc5cnccc54)n2)CCC3)nc1 (10 µM) 0
Cn1ncc2cc(-c3cnc(N)c(Cl)c3N3CCC4(CCNC4=O)CC3)ccc21 (10 µM) 0
C[C@H](Nc1ncnc2nc[nH]c12)c1cc2cccc(Cl)c2c(=O)n1-c1ccccc1 [Duvelisib] (10 µM) 0
CS(=O)(=O)c1ccc(-c2cnc(N)c(-c3ccc(C(F)(F)F)nc3)c2)cc1 (10 µM) 0
c1cc(NC2CCNCC2)nc(-c2cnc3ccccn23)c1 [IRAK inhibitor 1] (10 µM) 0
C[C@@H]1CCNC(=O)c2cc3ccc(C(=O)Nc4nc5ccccc5n4CCCN(C)C)cc3n21 (10 µM) 0
Cc1cnc(NC2CCOCC2)nc1-n1cnc(C(=O)N[C@H](CN)c2cc(F)cc(Cl)c2)c1 (10 µM) 0
O=C(NCc1cccc(O)c1)Nc1nc(-c2ccncc2)cs1 (10 µM) 0
Cc1cc2sc(NC(=O)Cc3ccccc3)nc2cc1Cl (10 µM) 0
COc1cc2ncnc(-n3nc(-c4ccccn4)nc3N)c2cc1OC (10 µM) 0
O=C(N[C@@H](C1CC1)C(F)(F)F)c1cc(-c2cnn3cc(-c4ccc(F)cc4)cnc23)cs1 (10 µM) 0
O=C1/C(=C\c2ccc(Cl)cc2)C=C(c2ccccc2)N1c1ccc(O)cc1 (2.5 µM) 0
CNC(=O)c1ccccc1Nc1nc(Nc2ccc3c(c2OC)CCC[C@H](N2CCN(CCO)CC2)C3)ncc1Cl (10 µM) 0
C=CC(=O)Nc1cccc(CNc2nc(Nc3ccc(N4CCN(C)CC4)cc3OC)ncc2Cl)c1 (10 µM) 0
CC(C)=CCc1c(-c2ccc(O)cc2O)oc2c3c(cc(O)c2c1=O)OC(C)(C)C=C3 [Morusin] (2.5 µM) 0
CN1CCC(c2ccccc2CC(C)(C)Nc2nc(N3CCOCC3)nc(-n3c(C(F)F)nc4ccccc43)n2)CC1 [Zandelisib] (10 µM) 0
CC(C)(O)[C@H]1CC[C@H](Nc2ccc3ncc(-c4cccc(C(F)(F)F)c4)n3n2)CC1 (10 µM) 0
CC(C)c1cc(/C=C(\C#N)C(=O)NCCCc2ccccc2)cc(C(C)C)c1O (10 µM) 0
CCOC(=O)N1C/C(=C/c2ccccc2F)C(=O)/C(=C\c2ccccc2F)C1 (2.5 µM) 0
C=CC(=O)Nc1cccc(-c2cccc3cnc(Nc4ccc(N5CCN(CCO)CC5)c(F)c4F)nc23)c1 [Olafertinib] (2.5 µM) 0
COc1cc(N2CCOCC2)ccc1Nc1ncc(Cl)c(Nc2ccccc2NS(C)(=O)=O)n1 (2.5 µM) 0
Nc1n[nH]c2nc(-c3ccc(NS(=O)(=O)c4cc(Cl)ccc4F)cc3)cnc12 (10 µM) 0
Nc1c(C(=O)NCc2ccc(C(=O)NCCCC3CCCCC3)cc2)cnn1-c1ccccc1 (2.5 µM) 0

Reprinted at random: two entries already listed.
kinase-Nluc reporter destabilization hit call, inactive:
Cn1ncc2cc(-c3cnc(N)c(Cl)c3N3CCC4(CCNC4=O)CC3)ccc21 (10 µM) 0
C=CC(=O)Nc1cccc(-c2cccc3cnc(Nc4ccc(N5CCN(CCO)CC5)c(F)c4F)nc23)c1 [Olafertinib] (2.5 µM) 0
